Measured data: PubChem BioAssay AID1053209 (Peter MacCallum Cancer Centre, 2014)
This is one part, drawn at random, of about 1,580 reagents tested. 207 of them (13%) count as active. 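Rows are single siRNAs; four siRNAs per gene were tested, a gene counting as confirmed only when at least two agree.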 A number with no mark means an inactive call. Reagents against one gene are numbered here. Further read-outs or replicates are left out here. Reagent sequences are not shown.

Aim: 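Follow-up of single siRNAs that strengthen doxorubicin killing in osteosarcoma cells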 (follow-up of hits)
Cells: mouse primary osteosarcoma cells
Knock-down reagent: single siRNA against mouse genes, 25 nM (text also states 40 nM)
Time to read-out: about 120 h (48 h before drug, then 72 h with drug)
Challenge: doxorubicin 100 nM (about IC30-40), added 48 h after transfection, for 72 h
Detection: 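Viability measured by ATP luminescence with and without doxorubicin, each replicate scaled to non-targeting siRNA NT1, averaged over two replicates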
Scale: viability with doxorubicin, vs NT1: higher = more viable cells under doxorubicin; viability without drug, vs NT1: higher = more viable cells without drug
Active means: 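Active when doxorubicin viability is at most 0.7 of NT1 and drug-free viability lies between 0.7 and 1.1, class LC dox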

With Polr2j #1, what does the deposit list?
combined effect class: normal viability with and without drug; viability with doxorubicin, vs NT1: 1.06; viability without drug, vs NT1: 0.98

With Polr2j #2, what was measured?
combined effect class: normal viability with and without drug; viability with doxorubicin, vs NT1: 0.97; viability without drug, vs NT1: 0.98

What is on record for Polr2j #3?
combined effect class: low viability only with doxorubicin; normal without drug (active); viability with doxorubicin, vs NT1: 0.39; viability without drug, vs NT1: 0.74

With Polr2j #4, how do the results read?
combined effect class: low viability only with doxorubicin; normal without drug (active); viability with doxorubicin, vs NT1: 0.62; viability without drug, vs NT1: 0.9

For Vdac2 #1, how do the results read?
combined effect class: high viability only without drug; viability with doxorubicin, vs NT1: 0.86; viability without drug, vs NT1: 1.1

What did the screen give for Vdac2 #2?
combined effect class: normal viability with and without drug; viability with doxorubicin, vs NT1: 0.72; viability without drug, vs NT1: 0.96

For Vdac2 #3, what was measured?
combined effect class: normal viability with and without drug; viability with doxorubicin, vs NT1: 0.74; viability without drug, vs NT1: 1

What did the screen give for Vdac2 #4?
combined effect class: low viability only with doxorubicin; normal without drug (active); viability with doxorubicin, vs NT1: 0.6; viability without drug, vs NT1: 0.93

How did the screen score Rps24 #1?
combined effect class: low viability with and without drug; viability with doxorubicin, vs NT1: 0.42; viability without drug, vs NT1: 0.32

What did the screen give for Rps24 #2?
combined effect class: low viability with and without drug; viability with doxorubicin, vs NT1: 0.52; viability without drug, vs NT1: 0.4

With Rps24 #3, how do the results read?
combined effect class: low viability with and without drug; viability with doxorubicin, vs NT1: 0.28; viability without drug, vs NT1: 0.6

What is on record for Rps24 #4?
combined effect class: low viability with and without drug; viability with doxorubicin, vs NT1: 0.24; viability without drug, vs NT1: 0.48

For Lrfn1 #1, what does the deposit list?
combined effect class: normal viability with and without drug; viability with doxorubicin, vs NT1: 1.06; viability without drug, vs NT1: 0.99

For Lrfn1 #2, what does the deposit list?
combined effect class: normal viability with and without drug; viability with doxorubicin, vs NT1: 1; viability without drug, vs NT1: 0.96

Which result is listed for Lrfn1 #3?
combined effect class: normal viability with and without drug; viability with doxorubicin, vs NT1: 0.8; viability without drug, vs NT1: 1

With Lrfn1 #4, how do the results read?
combined effect class: normal viability with and without drug; viability with doxorubicin, vs NT1: 0.96; viability without drug, vs NT1: 1.03

2 of these entries, set out differently:
Rps24 #2
- combined effect class: low viability with and without drug
- viability with doxorubicin, vs NT1: 0.52
- viability without drug, vs NT1: 0.4

Rps24 #3
- combined effect class: low viability with and without drug
- viability with doxorubicin, vs NT1: 0.28
- viability without drug, vs NT1: 0.6
